# PubChem BioAssay AID1508597, Cure First – 2020
# Purpose: 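Survival screen with siRNA in ovarian cancer cells derived from patients, with or without rucaparib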 (primary screen)
# Cells: human ovarian carcinoma lines grown from tumours: OCI-P5x (papillary serous) and OCI-C5x (clear cell)
# Knock-down reagent: siRNA pool against human genes, 1.25 pmol siRNA per well
# Time to read-out: 72 h or 96 h, depending on the cell culture
# Conditions: rucaparib 20 µM (about IC30) or vehicle, present until read-out
# Rucaparib or vehicle: Vehicle
# Cell line: OCI-P5x (serous)
# Measurement: 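Luminescent ATP-based viability assay read 72 or 96 h after transfection, depending on culture, given as normalised percent viability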
# Direction: viability, normalised: higher = more viable cells remaining
# Call rule: 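Active when normalised viability falls below 80 percent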
# Meaning of the calls: active = viability under 80%; inactive = viability 80% or more
# This is an unselected part of the about 2,100 reagents, under one of the conditions tested. 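Calls flag viability under 80% in either arm, not effects specific to rucaparib; the reference for percent is not stated.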 A reagent listed more than once was tested more than once; the source does not tell the runs apart. Not given: the 100% reference.
gene knocked down,technical replicate,"viability, normalised (%)",outcome
TRIM66 (tripartite motif containing 66),1,110,inactive
TRIM66 (tripartite motif containing 66),2,133,inactive
TRIM66 (tripartite motif containing 66),3,85.5,inactive
TNK2 (tyrosine kinase non receptor 2),1,67,active
TNK2 (tyrosine kinase non receptor 2),2,76.8,active
TNK2 (tyrosine kinase non receptor 2),3,79.4,active
UBE2N (ubiquitin conjugating enzyme E2 N),1,47.4,active
UBE2N (ubiquitin conjugating enzyme E2 N),1,102,inactive
UBE2N (ubiquitin conjugating enzyme E2 N),2,45.6,active
UBE2N (ubiquitin conjugating enzyme E2 N),2,103,inactive
UBE2N (ubiquitin conjugating enzyme E2 N),3,99.4,inactive
UBE2N (ubiquitin conjugating enzyme E2 N),3,42.8,active
DDX41 (DEAD-box helicase 41),1,57.2,active
DDX41 (DEAD-box helicase 41),2,47.6,active
DDX41 (DEAD-box helicase 41),3,76.8,active
DYRK4 (dual specificity tyrosine phosphorylation regulated kinase 4),1,78.8,active
DYRK4 (dual specificity tyrosine phosphorylation regulated kinase 4),2,77,active
DYRK4 (dual specificity tyrosine phosphorylation regulated kinase 4),3,85.9,inactive
DNAJC5 (DnaJ heat shock protein family (Hsp40) member C5),1,93.1,inactive
DNAJC5 (DnaJ heat shock protein family (Hsp40) member C5),2,88.3,inactive
DNAJC5 (DnaJ heat shock protein family (Hsp40) member C5),3,96.1,inactive
PHF19 (PHD finger protein 19),1,46.8,active
PHF19 (PHD finger protein 19),2,51.1,active
PHF19 (PHD finger protein 19),3,70.4,active
NEK11 (NIMA related kinase 11),1,70.1,active
NEK11 (NIMA related kinase 11),2,65.3,active
NEK11 (NIMA related kinase 11),3,79.3,active
SCMH1 (Scm polycomb group protein homolog 1),1,44.5,active
SCMH1 (Scm polycomb group protein homolog 1),2,70.6,active
SCMH1 (Scm polycomb group protein homolog 1),3,155,inactive
MED21 (mediator complex subunit 21),1,76.6,active
MED21 (mediator complex subunit 21),2,71.2,active
MED21 (mediator complex subunit 21),3,106,inactive
PRDM11 (PR/SET domain 11),1,45,active
PRDM11 (PR/SET domain 11),2,48.3,active
PRDM11 (PR/SET domain 11),3,59.6,active
MED24 (mediator complex subunit 24),1,61,active
MED24 (mediator complex subunit 24),2,61,active
MED24 (mediator complex subunit 24),3,58.2,active
MAPK13 (mitogen-activated protein kinase 13),1,72.3,active
MAPK13 (mitogen-activated protein kinase 13),2,68.4,active
MAPK13 (mitogen-activated protein kinase 13),3,74.7,active
KAT6B (lysine acetyltransferase 6B),1,48.2,active
KAT6B (lysine acetyltransferase 6B),2,58,active
KAT6B (lysine acetyltransferase 6B),3,67.1,active
RAD1 (RAD1 checkpoint DNA exonuclease),1,60,active
RAD1 (RAD1 checkpoint DNA exonuclease),2,63.9,active
RAD1 (RAD1 checkpoint DNA exonuclease),3,56.8,active
ASCC3 (activating signal cointegrator 1 complex subunit 3),1,64.3,active
ASCC3 (activating signal cointegrator 1 complex subunit 3),2,84.8,inactive
ASCC3 (activating signal cointegrator 1 complex subunit 3),3,81.4,inactive
MYLK3 (myosin light chain kinase 3),1,60.1,active
MYLK3 (myosin light chain kinase 3),2,53.6,active
MYLK3 (myosin light chain kinase 3),3,60.1,active
MSH6 (mutS homolog 6),1,90.3,inactive
MSH6 (mutS homolog 6),1,58.8,active
MSH6 (mutS homolog 6),2,61.5,active
MSH6 (mutS homolog 6),2,105,inactive
MSH6 (mutS homolog 6),3,106,inactive
MSH6 (mutS homolog 6),3,66.9,active
